According to patent US20250288624A1, “LONG-TERM STABILIZATION, FORMULATION AND TABLETING OF LIVE MICROBIAL CELLS” (priority 2022, published 2025):
Some entries share one result that the patent states for a list of compounds. At least one structure is not confirmed: it was looked up by name or label, or the drawing left a doubt.

Tested on: E. coli Nissle 1917
Experiment: Direct comparison of synthetic extremophile E. coli Nissle 1917 with Mutaflor (storage at 23° C.)
Assay type: cell-based, Escherichia coli
Conditions: stored at room temperature for 1 month

Structure (SMILES): OC[C@H]1O[C@H](OCC2O[C@@H](O)[C@H](O)[C@@H](O)[C@@H]2O)[C@H](O)[C@@H](O)[C@H]1O (stereo partly shown) [melibiose]
- viability outperformance over commercial product Mutaflor: over 3.5 orders of magnitude
